At least one compound was matched to its structure with a doubt left.
Tested on: PGC-1 mRNA
Conditions: primary rat hepatocytes, serum-free DMEM, 1 mM, 6-8 hours after initiation of treatment

C[C@@H]1C[C@H]2[C@@H]3CCC4=CC(=O)C=C[C@]4(C)[C@@]3(F)[C@@H](O)C[C@]2(C)[C@@]1(O)C(=O)CO [dexamethasone]
PGC-1 mRNA (Northern analysis): barely detectable increase

Source: patent US7371529B2, “Methods and compositions for modulating gluconeogenesis using PGC-1” (Dana-Farber Cancer Institute, Inc., priority 2001, dated 2008)
